The values that follow come from article PMC12603192.

Protein sequences, listed by entry. Tags and fused reporters are not part of them.
UniProt Q15796: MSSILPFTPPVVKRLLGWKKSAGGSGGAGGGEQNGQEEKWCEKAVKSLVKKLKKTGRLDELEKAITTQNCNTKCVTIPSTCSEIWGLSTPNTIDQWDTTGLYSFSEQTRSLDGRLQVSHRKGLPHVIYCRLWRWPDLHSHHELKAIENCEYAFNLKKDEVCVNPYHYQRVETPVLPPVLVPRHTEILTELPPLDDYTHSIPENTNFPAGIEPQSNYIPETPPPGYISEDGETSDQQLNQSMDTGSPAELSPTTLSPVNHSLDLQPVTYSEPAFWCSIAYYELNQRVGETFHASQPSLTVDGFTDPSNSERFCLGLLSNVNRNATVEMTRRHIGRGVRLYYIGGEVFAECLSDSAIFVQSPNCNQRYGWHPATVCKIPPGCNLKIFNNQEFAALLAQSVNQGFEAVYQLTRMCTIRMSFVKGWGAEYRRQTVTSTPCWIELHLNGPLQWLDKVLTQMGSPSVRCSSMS

One assay has as its target GST-SMAD2 (UniProt Q15796). The assay is described as follows: pull-down; in vitro binding assay: lysates of HEK293 cells expressing FLAG-ALK5 or FLAG-ALK5 7KR incubated with GST-SMAD2; immunoblot; only the target purified.
In a further assay the target is T1, HA-MARCH2 (human) (UniProt Q9P0N8).
T1 sequence: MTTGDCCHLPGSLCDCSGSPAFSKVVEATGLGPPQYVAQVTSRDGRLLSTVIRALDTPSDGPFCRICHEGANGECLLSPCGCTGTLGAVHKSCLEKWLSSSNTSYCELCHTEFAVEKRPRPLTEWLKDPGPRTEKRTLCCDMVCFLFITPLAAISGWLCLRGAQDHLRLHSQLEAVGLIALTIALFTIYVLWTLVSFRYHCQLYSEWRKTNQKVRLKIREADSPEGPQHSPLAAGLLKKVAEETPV
The assay is described as follows: co-IP; tagged proteins co-expressed (HEK293T for Fig. 2B); lysis in 1% NP-40, 20 mM Tris-HCl pH 7.6, 150 mM NaCl, 2 mM EDTA; magnetic beads overnight at 4 °C, five washes; immunoblot. A general note: In western blotting, separated proteins are transferred to a membrane and probed.

The target of a further assay is T2, MYC-MARCH2 (human) (UniProt Q9P0N8).
T2 sequence: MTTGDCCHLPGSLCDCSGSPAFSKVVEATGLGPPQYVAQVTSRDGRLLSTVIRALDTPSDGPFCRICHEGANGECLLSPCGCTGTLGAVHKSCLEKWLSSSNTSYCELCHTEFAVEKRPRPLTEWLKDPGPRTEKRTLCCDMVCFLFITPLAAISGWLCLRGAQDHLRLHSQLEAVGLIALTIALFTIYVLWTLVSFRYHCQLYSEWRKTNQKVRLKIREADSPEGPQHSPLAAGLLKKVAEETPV
The description is as above.

The next assay concerns the target T3, ALK5-VN173 (human) (UniProt P36897).
T3 sequence: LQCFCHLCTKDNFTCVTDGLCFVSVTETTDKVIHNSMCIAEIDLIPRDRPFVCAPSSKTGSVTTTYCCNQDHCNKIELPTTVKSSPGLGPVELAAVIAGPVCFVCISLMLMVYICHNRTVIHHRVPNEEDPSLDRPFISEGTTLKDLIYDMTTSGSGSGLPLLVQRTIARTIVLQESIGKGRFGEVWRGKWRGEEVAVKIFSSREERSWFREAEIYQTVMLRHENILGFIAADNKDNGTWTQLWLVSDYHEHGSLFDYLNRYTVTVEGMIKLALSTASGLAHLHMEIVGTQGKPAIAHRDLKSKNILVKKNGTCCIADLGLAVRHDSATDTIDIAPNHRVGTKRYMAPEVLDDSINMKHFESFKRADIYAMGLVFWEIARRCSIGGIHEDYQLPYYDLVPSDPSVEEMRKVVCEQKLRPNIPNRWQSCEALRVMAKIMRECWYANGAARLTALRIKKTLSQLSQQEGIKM
Kind of assay: split reporter; BiFC: HeLa cells transfected with MARCH2-VC155 and ALK5-VN173, fixed after 24 h, confocal microscopy.

For a further assay, the target named is T4, HA-ALK5 (human) (UniProt P36897).
T4 sequence: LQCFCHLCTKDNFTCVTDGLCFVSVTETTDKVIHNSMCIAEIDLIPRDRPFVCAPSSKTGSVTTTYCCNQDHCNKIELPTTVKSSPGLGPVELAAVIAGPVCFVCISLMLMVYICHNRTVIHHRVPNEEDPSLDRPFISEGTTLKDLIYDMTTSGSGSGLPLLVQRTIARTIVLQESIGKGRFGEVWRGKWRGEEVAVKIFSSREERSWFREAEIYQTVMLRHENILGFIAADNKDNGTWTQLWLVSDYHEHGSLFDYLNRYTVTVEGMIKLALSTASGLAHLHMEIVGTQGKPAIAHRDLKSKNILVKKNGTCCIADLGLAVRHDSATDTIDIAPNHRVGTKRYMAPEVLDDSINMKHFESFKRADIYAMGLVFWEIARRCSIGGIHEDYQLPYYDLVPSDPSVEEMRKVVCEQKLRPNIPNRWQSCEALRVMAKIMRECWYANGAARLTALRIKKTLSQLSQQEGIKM
Kind of assay: co-IP; tagged proteins co-expressed (HEK293T for Fig. 2B); lysis in 1% NP-40, 20 mM Tris-HCl pH 7.6, 150 mM NaCl, 2 mM EDTA; magnetic beads overnight at 4 °C, five washes; immunoblot.

Results are given in words; binding and its absence hold for the method and conditions named. In cells and extracts the contact can be indirect. Some results given as binding are weak or reduced against the parent protein; the word gives no strength. For part of these data: Tags and fused reporters may be left off the sequences shown.

B1: FLAG-ALK5 (receptor, UniProt P36897 34-503)
chain: LQCFCHLCTKDNFTCVTDGLCFVSVTETTDKVIHNSMCIAEIDLIPRDRPFVCAPSSKTGSVTTTYCCNQDHCNKIELPTTVKSSPGLGPVELAAVIAGPVCFVCISLMLMVYICHNRTVIHHRVPNEEDPSLDRPFISEGTTLKDLIYDMTTSGSGSGLPLLVQRTIARTIVLQESIGKGRFGEVWRGKWRGEEVAVKIFSSREERSWFREAEIYQTVMLRHENILGFIAADNKDNGTWTQLWLVSDYHEHGSLFDYLNRYTVTVEGMIKLALSTASGLAHLHMEIVGTQGKPAIAHRDLKSKNILVKKNGTCCIADLGLAVRHDSATDTIDIAPNHRVGTKRYMAPEVLDDSINMKHFESFKRADIYAMGLVFWEIARRCSIGGIHEDYQLPYYDLVPSDPSVEEMRKVVCEQKLRPNIPNRWQSCEALRVMAKIMRECWYANGAARLTALRIKKTLSQLSQQEGIKM
For B1, the binding result with GST-SMAD2, with HA-MARCH2 (human) and with MYC-MARCH2 (human) was “binds” each time.

B2: FLAG-ALK5 7KR (receptor, UniProt P36897 34-503)
chain: LQCFCHLCTKDNFTCVTDGLCFVSVTETTDKVIHNSMCIAEIDLIPRDRPFVCAPSSKTGSVTTTYCCNQDHCNKIELPTTVKSSPGLGPVELAAVIAGPVCFVCISLMLMVYICHNRTVIHHRVPNEEDPSLDRPFISEGTTLKDLIYDMTTSGSGSGLPLLVQRTIARTIVLQESIGRGRFGEVWRGKWRGEEVAVKIFSSREERSWFREAEIYQTVMLRHENILGFIAADNKDNGTWTQLWLVSDYHEHGSLFDYLNRYTVTVEGMIKLALSTASGLAHLHMEIVGTQGKPAIAHRDLKSKNILVRRNGTCCIADLGLAVRHDSATDTIDIAPNHRVGTKRYMAPEVLDDSINMRHFESFKRADIYAMGLVFWEIARRCSIGGIHEDYQLPYYDLVPSDPSVEEMRKVVCEQRLRPNIPNRWQSCEALRVMAKIMRECWYANGAARLTALRIRRTLSQLSQQEGIKM
As to B2, the binding result in the assay with GST-SMAD2 was “binds”.

B3: MARCH2-VC155 (enzyme, UniProt Q9P0N8 1-246)
chain: MTTGDCCHLPGSLCDCSGSPAFSKVVEATGLGPPQYVAQVTSRDGRLLSTVIRALDTPSDGPFCRICHEGANGECLLSPCGCTGTLGAVHKSCLEKWLSSSNTSYCELCHTEFAVEKRPRPLTEWLKDPGPRTEKRTLCCDMVCFLFITPLAAISGWLCLRGAQDHLRLHSQLEAVGLIALTIALFTIYVLWTLVSFRYHCQLYSEWRKTNQKVRLKIREADSPEGPQHSPLAAGLLKKVAEETPV
Consider B3, for which, in the assay with ALK5-VN173 (human), the binding entry is “binds”.

B4: FLAG-MARCH2 (enzyme, UniProt Q9P0N8 1-246)
chain: MTTGDCCHLPGSLCDCSGSPAFSKVVEATGLGPPQYVAQVTSRDGRLLSTVIRALDTPSDGPFCRICHEGANGECLLSPCGCTGTLGAVHKSCLEKWLSSSNTSYCELCHTEFAVEKRPRPLTEWLKDPGPRTEKRTLCCDMVCFLFITPLAAISGWLCLRGAQDHLRLHSQLEAVGLIALTIALFTIYVLWTLVSFRYHCQLYSEWRKTNQKVRLKIREADSPEGPQHSPLAAGLLKKVAEETPV
For the molecule B4, the binding result in the assay with HA-ALK5 (human) was “binds”.
